# Experimental data published in the supplement of paper PMC10849652.
# Protein sequences, listed by entry. Tags and fused reporters are not part of them. Lines headed by an entry give the natural chain unless they say otherwise; changes in a name come on top.
# UniProt Q86TV6: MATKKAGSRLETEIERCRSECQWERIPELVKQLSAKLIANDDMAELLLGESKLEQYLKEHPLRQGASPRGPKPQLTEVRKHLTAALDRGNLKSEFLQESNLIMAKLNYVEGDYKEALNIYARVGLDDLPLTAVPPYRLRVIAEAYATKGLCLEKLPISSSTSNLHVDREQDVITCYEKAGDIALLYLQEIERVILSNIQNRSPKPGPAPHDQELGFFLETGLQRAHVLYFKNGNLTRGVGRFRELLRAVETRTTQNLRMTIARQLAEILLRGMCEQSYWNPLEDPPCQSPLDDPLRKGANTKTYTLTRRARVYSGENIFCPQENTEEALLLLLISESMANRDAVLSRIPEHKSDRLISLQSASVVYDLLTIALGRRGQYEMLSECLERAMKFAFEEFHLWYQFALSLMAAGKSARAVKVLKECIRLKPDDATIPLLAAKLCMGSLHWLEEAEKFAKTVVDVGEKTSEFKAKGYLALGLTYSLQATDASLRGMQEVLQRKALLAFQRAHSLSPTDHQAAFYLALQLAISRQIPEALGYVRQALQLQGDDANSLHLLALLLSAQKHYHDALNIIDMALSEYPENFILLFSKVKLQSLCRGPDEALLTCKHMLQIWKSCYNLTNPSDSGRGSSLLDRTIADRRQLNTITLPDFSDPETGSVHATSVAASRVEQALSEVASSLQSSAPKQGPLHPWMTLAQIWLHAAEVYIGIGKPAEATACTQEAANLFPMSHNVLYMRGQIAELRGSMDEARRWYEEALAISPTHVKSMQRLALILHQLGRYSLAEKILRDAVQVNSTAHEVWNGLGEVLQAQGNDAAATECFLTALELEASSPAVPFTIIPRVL
# UniProt O00635: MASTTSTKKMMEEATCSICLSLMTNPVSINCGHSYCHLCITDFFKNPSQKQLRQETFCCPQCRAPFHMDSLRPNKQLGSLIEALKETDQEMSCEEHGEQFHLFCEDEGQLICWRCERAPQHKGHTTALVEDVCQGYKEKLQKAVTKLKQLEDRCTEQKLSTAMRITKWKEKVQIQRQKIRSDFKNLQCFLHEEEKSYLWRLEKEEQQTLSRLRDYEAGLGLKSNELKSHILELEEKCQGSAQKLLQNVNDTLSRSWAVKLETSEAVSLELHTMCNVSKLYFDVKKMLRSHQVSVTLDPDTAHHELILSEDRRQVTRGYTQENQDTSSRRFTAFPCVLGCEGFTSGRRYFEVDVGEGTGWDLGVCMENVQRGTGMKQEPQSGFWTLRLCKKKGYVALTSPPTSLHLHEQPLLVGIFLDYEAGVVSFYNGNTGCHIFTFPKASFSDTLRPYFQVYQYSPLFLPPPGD
# UniProt Q8NG11: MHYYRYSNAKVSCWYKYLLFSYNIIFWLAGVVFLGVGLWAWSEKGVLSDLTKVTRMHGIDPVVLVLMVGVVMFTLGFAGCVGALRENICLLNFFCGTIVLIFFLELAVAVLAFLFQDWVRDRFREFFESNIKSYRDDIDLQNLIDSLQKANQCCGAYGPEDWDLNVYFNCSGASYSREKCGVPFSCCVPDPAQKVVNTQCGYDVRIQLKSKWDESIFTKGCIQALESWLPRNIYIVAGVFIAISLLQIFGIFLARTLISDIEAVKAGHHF
# UniProt Q99598: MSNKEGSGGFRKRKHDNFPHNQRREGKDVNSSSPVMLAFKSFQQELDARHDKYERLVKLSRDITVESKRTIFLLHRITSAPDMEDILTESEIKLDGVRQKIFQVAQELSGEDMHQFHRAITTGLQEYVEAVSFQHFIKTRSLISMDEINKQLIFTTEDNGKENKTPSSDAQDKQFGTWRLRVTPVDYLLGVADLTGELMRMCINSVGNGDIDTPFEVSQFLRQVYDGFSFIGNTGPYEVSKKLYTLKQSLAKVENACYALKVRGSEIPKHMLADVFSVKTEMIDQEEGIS
# UniProt Q9NX07: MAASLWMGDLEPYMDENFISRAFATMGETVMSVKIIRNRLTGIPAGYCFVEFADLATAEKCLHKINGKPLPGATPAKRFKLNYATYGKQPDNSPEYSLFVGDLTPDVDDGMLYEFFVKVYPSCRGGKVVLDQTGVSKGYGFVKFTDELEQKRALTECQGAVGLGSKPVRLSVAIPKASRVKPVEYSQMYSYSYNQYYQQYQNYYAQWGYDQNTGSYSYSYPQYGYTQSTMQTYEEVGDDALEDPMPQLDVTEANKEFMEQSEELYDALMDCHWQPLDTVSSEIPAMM
# UniProt Q8N0Z6: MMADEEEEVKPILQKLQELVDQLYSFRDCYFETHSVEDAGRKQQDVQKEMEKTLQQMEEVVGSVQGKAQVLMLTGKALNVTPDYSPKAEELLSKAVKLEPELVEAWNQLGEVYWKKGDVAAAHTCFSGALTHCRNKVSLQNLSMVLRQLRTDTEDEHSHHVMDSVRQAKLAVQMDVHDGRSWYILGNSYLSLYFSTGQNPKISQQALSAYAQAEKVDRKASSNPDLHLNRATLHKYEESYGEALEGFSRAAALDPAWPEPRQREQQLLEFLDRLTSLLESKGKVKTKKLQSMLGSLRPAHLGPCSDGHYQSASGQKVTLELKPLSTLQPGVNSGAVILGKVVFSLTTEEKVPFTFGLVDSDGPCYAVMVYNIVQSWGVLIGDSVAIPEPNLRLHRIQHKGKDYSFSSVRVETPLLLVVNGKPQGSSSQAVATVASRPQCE
# UniProt Q13630: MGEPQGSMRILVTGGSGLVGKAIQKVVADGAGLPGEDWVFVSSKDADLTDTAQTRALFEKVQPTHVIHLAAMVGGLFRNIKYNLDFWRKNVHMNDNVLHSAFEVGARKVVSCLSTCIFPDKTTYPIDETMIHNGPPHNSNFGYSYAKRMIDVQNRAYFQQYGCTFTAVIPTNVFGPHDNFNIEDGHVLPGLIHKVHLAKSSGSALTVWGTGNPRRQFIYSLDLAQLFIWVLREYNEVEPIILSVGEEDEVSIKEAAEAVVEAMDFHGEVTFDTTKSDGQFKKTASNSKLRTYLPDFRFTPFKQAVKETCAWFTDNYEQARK
# UniProt Q6DKK2: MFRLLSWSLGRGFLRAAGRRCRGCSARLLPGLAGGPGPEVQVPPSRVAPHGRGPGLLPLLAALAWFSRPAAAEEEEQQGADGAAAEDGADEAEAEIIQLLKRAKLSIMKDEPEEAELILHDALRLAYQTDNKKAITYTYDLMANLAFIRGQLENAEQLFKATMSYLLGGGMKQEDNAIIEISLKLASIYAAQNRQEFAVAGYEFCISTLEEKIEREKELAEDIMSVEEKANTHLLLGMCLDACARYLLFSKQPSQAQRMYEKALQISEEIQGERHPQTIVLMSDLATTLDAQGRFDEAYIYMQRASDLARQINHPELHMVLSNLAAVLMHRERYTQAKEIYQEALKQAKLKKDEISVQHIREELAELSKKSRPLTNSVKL
# UniProt Q8WW01: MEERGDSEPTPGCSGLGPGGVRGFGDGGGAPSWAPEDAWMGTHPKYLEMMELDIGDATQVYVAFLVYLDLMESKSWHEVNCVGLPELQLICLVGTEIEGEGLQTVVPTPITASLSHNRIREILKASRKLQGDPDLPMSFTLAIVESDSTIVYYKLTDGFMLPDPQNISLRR
# UniProt O14717: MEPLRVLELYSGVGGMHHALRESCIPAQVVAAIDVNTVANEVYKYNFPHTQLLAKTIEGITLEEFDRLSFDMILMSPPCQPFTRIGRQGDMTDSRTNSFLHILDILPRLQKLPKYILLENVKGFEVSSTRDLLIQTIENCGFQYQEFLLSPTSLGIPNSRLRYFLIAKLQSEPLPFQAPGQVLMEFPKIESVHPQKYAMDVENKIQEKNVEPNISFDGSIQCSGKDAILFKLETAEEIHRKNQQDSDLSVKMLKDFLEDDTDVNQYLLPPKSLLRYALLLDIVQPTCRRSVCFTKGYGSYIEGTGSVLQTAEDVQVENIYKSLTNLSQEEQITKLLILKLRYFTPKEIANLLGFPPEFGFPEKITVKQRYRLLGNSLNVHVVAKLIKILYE
# UniProt O43715: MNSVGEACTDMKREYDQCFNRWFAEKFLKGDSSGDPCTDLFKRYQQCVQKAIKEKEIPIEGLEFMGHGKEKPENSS
# UniProt Q96Q11: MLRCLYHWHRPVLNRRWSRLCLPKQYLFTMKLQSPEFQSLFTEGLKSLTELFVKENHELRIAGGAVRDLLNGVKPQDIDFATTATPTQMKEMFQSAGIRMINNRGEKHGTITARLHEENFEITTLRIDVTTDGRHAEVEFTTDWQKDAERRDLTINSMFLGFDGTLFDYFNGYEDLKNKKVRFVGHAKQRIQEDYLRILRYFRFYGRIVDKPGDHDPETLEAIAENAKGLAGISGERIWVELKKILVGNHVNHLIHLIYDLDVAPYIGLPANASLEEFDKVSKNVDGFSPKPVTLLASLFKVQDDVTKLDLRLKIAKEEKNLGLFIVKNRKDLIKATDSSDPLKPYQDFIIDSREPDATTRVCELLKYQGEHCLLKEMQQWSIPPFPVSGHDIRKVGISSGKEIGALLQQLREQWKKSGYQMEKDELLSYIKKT
# UniProt O43156, whole entry, looked up: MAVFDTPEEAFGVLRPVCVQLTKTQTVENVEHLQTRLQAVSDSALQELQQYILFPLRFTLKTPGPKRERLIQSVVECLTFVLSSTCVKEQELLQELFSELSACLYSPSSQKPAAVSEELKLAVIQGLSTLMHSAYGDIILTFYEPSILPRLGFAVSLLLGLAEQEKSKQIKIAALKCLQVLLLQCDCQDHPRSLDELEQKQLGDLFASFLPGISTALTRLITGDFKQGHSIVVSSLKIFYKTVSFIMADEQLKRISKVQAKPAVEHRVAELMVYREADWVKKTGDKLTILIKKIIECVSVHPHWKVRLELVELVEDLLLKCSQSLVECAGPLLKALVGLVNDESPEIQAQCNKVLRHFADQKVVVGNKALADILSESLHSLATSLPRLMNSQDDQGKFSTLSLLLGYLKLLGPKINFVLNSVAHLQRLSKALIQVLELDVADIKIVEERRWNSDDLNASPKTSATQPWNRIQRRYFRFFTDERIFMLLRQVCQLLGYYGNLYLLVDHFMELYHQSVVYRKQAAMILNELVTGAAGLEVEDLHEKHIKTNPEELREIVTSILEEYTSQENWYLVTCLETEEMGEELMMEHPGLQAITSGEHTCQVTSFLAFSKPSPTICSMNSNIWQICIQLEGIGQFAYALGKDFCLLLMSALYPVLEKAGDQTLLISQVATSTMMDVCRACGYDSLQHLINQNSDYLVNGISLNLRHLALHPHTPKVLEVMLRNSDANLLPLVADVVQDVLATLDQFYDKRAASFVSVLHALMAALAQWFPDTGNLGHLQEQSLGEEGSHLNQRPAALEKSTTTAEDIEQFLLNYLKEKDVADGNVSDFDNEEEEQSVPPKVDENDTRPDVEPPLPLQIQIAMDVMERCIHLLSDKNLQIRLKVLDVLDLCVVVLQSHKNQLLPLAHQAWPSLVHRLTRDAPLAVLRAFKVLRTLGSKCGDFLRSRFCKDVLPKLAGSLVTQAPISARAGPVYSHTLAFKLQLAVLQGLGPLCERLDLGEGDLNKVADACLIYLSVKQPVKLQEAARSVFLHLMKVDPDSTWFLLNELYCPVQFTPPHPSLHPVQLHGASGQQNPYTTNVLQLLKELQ
# UniProt Q15714: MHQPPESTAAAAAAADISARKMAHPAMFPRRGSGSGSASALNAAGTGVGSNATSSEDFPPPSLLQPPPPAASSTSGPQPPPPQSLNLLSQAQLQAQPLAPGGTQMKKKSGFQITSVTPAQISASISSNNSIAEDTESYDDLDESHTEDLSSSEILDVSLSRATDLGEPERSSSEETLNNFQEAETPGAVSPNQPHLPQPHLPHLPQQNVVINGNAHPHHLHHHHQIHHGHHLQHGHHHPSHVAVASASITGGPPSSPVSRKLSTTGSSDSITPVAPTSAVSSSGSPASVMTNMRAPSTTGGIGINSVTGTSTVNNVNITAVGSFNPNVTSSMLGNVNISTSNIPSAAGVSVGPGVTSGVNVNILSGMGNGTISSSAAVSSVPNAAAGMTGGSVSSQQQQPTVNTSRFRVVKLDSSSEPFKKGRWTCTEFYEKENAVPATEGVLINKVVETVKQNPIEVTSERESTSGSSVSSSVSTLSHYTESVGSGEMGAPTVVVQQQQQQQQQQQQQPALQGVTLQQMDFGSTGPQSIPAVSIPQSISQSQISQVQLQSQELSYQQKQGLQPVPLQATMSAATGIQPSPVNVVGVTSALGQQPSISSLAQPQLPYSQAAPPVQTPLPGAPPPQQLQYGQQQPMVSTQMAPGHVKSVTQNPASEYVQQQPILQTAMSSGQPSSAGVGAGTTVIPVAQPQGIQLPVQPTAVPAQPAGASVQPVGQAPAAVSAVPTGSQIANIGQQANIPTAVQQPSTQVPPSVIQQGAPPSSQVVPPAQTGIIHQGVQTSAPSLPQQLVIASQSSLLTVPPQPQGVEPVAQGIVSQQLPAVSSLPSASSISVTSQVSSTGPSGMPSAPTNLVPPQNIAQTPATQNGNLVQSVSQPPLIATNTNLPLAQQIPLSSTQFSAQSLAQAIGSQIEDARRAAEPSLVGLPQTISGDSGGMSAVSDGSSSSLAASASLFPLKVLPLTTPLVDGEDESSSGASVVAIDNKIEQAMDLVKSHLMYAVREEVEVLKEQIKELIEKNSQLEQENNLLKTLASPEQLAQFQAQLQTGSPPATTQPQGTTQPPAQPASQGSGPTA
# The other results are listed elsewhere or left out.
# How the values were obtained:
# Assay in all cases: log2 fold change, soluble protein after heating vs DMSO (PISA); higher = thermal stabilisation; K562 lysate, 10 uM; active = over 0.2 and 3.5 SD of the protein, either way, in both replicates (recomputed)
# [1] = compound: NCC(=O)Nc1ccc(-n2nc(C(F)(F)F)cc2-c2ccc3c(ccc4ccccc43)c2)cc1
# How it was run: (§1)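 Quantification was by TMTpro 16plex LC-MS/MS with equalised channel sums, applied to the supernatant after 21,000xg for 90 min. Samples were crude K562 extract at 1 mg/mL protein in PBS pH 7.4 with 1 mM MgCl2, treated with 10 μM compound for 30 min, heated for 3 min across 48°C-58°C, pooled and brought to 0.5% NP-40 at 4°C. Values are log-two fold changes in thermal stability relative to solvent controls, from duplicates.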
# vorinostat = compound: O=C(CCCCCCC(=O)Nc1ccccc1)NO [vorinostat]
# How it was run: as §1
# silmitasertib = compound: O=C(O)c1ccc2c(c1)nc(Nc1cccc(Cl)c1)c1ccncc12 [silmitasertib]
# How it was run: as §1
# [2] = compound: O=C1NC(=O)C(c2cnc3ccccn23)=C1c1cn2c3c(cc(F)cc13)CN(C(=O)N1CCCCC1)CC2
# How it was run: as §1
# entospletinib = compound: c1cn2cc(-c3ccc4cn[nH]c4c3)nc(Nc3ccc(N4CCOCC4)cc3)c2n1 [entospletinib]
# How it was run: as §1
Target,log2 fold change [1],log2 fold change (vorinostat),log2 fold change (silmitasertib),log2 fold change [2],log2 fold change (entospletinib)
TTC7B isoform 2 (UniProt Q86TV6),inactive: -0.041,inactive: -0.24,inactive: 0.088,inactive: 0.046,inactive: -0.024
TRMT6 (UniProt Q9UJA5),inactive: -0.019,inactive: 0.049,inactive: 0.015,inactive: 0.022,inactive: -0.015
TRIM38 (UniProt O00635),inactive: 0.037,inactive: -0.21,inactive: 0.042,inactive: -0.045,inactive: -0.074
TRAPPC3 (UniProt O43617),inactive: -0.029,inactive: 0.035,inactive: 0.068,inactive: -0.062,inactive: 0.019
TSPAN14 (UniProt Q8NG11),inactive: -0.016,inactive: 0.073,inactive: -0.022,inactive: -0.086,inactive: -0.033
TRAPPC6B (UniProt Q86SZ2),inactive: -0.025,inactive: -0.009,inactive: -0.012,inactive: 0.015,inactive: 0.008
TROAP (UniProt Q12815),inactive: 0.003,active: -0.382,inactive: 0.003,inactive: 0.014,inactive: -0.057
TRAPPC11 (UniProt Q7Z392),inactive: -0.017,inactive: -0.145,inactive: 0.027,inactive: 0.023,inactive: -0.014
TSC22D4 (UniProt Q9Y3Q8),inactive: 0.05,inactive: 0.03,inactive: -0.042,inactive: 0.029,inactive: 0.02
TSNAX (UniProt Q99598),inactive: -0.008,inactive: 0.097,inactive: 0.007,inactive: -0.037,inactive: 0.012
TRIO (UniProt O75962),inactive: 0.024,inactive: 0.032,inactive: -0.035,inactive: 0.073,inactive: 0.031
TRNAU1AP (UniProt Q9NX07),inactive: 0.079,inactive: -0.178,inactive: 0.026,inactive: -0.017,inactive: -0.047
TSN (UniProt Q15631),inactive: 0.056,inactive: 0.066,inactive: -0.051,inactive: 0.024,inactive: 0.008
TRAPPC2 isoform 3 (UniProt P0DI81),inactive: -0.09,inactive: -0.051,inactive: -0.09,inactive: -0.061,inactive: 0.017
TRIM24 (UniProt O15164),inactive: 0.01,inactive: -0.098,inactive: 0.076,inactive: -0.083,inactive: -0.039
TRAPPC2L (UniProt Q9UL33),inactive: -0.054,inactive: -0.014,inactive: -0.024,inactive: 0.023,inactive: -0.005
TTC5 (UniProt Q8N0Z6),inactive: -0.003,active: -0.257,inactive: -0.029,inactive: -0.018,inactive: 0.051
TSTA3 (UniProt Q13630),inactive: 0.035,inactive: -0.078,inactive: 0,inactive: 0.044,inactive: 0.022
TRAPPC5 (UniProt Q8IUR0),inactive: 0.004,inactive: -0.123,inactive: 0.063,inactive: -0.072,inactive: 0.019
TRIM44 (UniProt Q96DX7),inactive: 0.024,inactive: -0.031,inactive: 0.062,inactive: -0.015,inactive: -0.051
TRIM21 (UniProt P19474),inactive: 0.068,inactive: -0.379,inactive: 0.06,inactive: 0.024,inactive: -0.152
TTC19 (UniProt Q6DKK2),inactive: 0.02,inactive: 0.03,inactive: 0.015,inactive: -0.009,inactive: -0.025
TSEN15 (UniProt Q8WW01),inactive: -0.081,inactive: -0.149,inactive: -0.015,inactive: -0.003,inactive: -0.058
TRMT12 (UniProt Q53H54),inactive: 0.045,active: -0.35,inactive: -0.039,inactive: -0.043,inactive: -0.125
TRAF2 isoform 2 (UniProt Q12933),inactive: 0.014,active: -0.269,inactive: 0.024,inactive: 0.031,inactive: 0.005
TRIM56 (UniProt Q9BRZ2),inactive: -0.022,active: -0.428,inactive: -0.043,inactive: -0.016,inactive: -0.004
TRDMT1 (UniProt O14717),inactive: 0.084,inactive: -0.038,inactive: 0.007,inactive: 0.154,inactive: 0.073

Target,log2 fold change [1],log2 fold change (vorinostat),log2 fold change (silmitasertib),log2 fold change [2],log2 fold change (entospletinib)
TRMT61B (UniProt Q9BVS5),inactive: -0.003,inactive: 0.032,inactive: -0.051,inactive: -0.072,inactive: -0.032
TTLL12 (UniProt Q14166),inactive: -0.021,active: -0.426,inactive: 0.092,inactive: 0.02,inactive: 0.049
TRPV2 (UniProt Q9Y5S1),inactive: -0.009,inactive: 0.007,inactive: 0,inactive: -0.021,inactive: -0.007
TRIP10 (UniProt Q15642),inactive: 0.012,inactive: 0.013,inactive: 0.017,inactive: -0.014,inactive: 0.042
TRAPPC4 (UniProt Q9Y296),inactive: -0.041,inactive: -0.168,inactive: 0.059,inactive: -0.029,inactive: -0.03
TRAPPC6A isoform 2 (UniProt O75865),inactive: -0.048,inactive: -0.038,inactive: 0.013,inactive: -0.002,inactive: -0.157
TTC17 (UniProt Q96AE7),inactive: 0.005,inactive: 0.008,inactive: -0.003,inactive: -0.015,inactive: 0.034
TRAP1 (UniProt Q12931),inactive: 0.008,inactive: 0.039,inactive: 0.008,inactive: 0.005,inactive: -0.014
TRIAP1 (UniProt O43715),inactive: 0.01,inactive: 0.077,inactive: -0.108,inactive: 0.129,inactive: -0.079
TTC4 (UniProt O95801),inactive: 0.013,active: -0.498,inactive: 0.022,inactive: -0.009,inactive: 0
TRNT1 (UniProt Q96Q11),inactive: 0.002,inactive: -0.132,inactive: -0.011,inactive: -0.007,inactive: 0.04
TRMT1 (UniProt Q9NXH9),inactive: -0.044,inactive: -0.061,inactive: 0.034,inactive: -0.024,inactive: -0.028
TRUB1 (UniProt Q8WWH5),inactive: 0.044,inactive: -0.218,inactive: -0.021,inactive: 0.039,inactive: -0.007
TTI1 (UniProt O43156),inactive: -0.037,active: -0.452,inactive: 0.089,inactive: -0.019,inactive: -0.017
TTC12 isoform 2 (UniProt Q9H892),inactive: -0.01,inactive: -0.163,inactive: 0.078,inactive: -0.058,inactive: -0.03
TSR3 (UniProt Q9UJK0),inactive: 0.047,inactive: -0.051,inactive: 0.014,inactive: 0.091,inactive: -0.021
TTK (UniProt P33981),inactive: -0.009,inactive: -0.183,inactive: 0.004,inactive: -0.03,inactive: -0.039
TTC38 (UniProt Q5R3I4),inactive: 0.017,inactive: -0.044,inactive: -0.014,inactive: -0.022,inactive: 0.029
TRIR (UniProt Q9BQ61),inactive: -0.021,inactive: 0.161,inactive: -0.013,inactive: 0.004,inactive: 0.028
TTC33 (UniProt Q6PID6),inactive: 0.057,inactive: -0.244,inactive: -0.011,inactive: 0.015,inactive: -0.061
TSC22D1 (UniProt Q15714),inactive: 0.019,inactive: 0.093,inactive: -0.038,inactive: 0.012,inactive: 0.008
TRMT112 (UniProt Q9UI30),inactive: -0.1,inactive: 0.032,inactive: -0.024,inactive: 0.067,inactive: -0.006
TRIM4 (UniProt Q9C037),inactive: 0.021,inactive: -0.144,inactive: 0.314,inactive: 0.019,inactive: 0.054
TRIM65 (UniProt Q6PJ69),inactive: 0.018,inactive: -0.094,inactive: -0.006,inactive: 0.002,inactive: -0.009
TTF2 (UniProt Q9UNY4),inactive: 0.02,active: -0.317,inactive: 0.008,inactive: -0.032,inactive: -0.074
TRIP6 (UniProt Q15654),inactive: 0.021,inactive: -0.037,inactive: 0,inactive: 0.024,inactive: -0.024

# A different layout for some results above:
Target	log2 fold change [1]	log2 fold change (vorinostat)	log2 fold change (silmitasertib)	log2 fold change [2]	log2 fold change (entospletinib)
TRIP10 (UniProt Q15642)	inactive: 0.012	inactive: 0.013	inactive: 0.017	inactive: -0.014	inactive: 0.042
TRAPPC4 (UniProt Q9Y296)	inactive: -0.041	inactive: -0.168	inactive: 0.059	inactive: -0.029	inactive: -0.03
TRAPPC6A isoform 2 (UniProt O75865)	inactive: -0.048	inactive: -0.038	inactive: 0.013	inactive: -0.002	inactive: -0.157
